3 compounds from PubChem BioAssay AID720706 (Broad Institute, 2013) can be followed below.

Some of the results follow.

This test is described as follows: reduced GFP signal of wild-type E. coli, primary screen, bacterial rRNA inhibitor project, GFP/RFP fluorescence, OD600, single point (AID 720706). Conditions: E. coli WT GFP vs humanized-ribosome RFP mutants, 24 h; OD600 change: measured here: OD600 growth, DMSO median 0, no signal -100; RFP signal change: measured here: RFP humanized mutant strains, DMSO median 0, no signal -100, concentration not given here.
In the case of `CCC(=O)N(c1ccccc1)C1(COC)CCN(CCn2nnn(CC)c2=O)CC1`, the OD600 change stood at 3.87% and the RFP signal change is -0.753%.

On to `CCC(=O)N(c1ccccc1)C1(COC)CCN(CCc2cccs2)CC1`, for which the OD600 change was -0.02% and the RFP signal change worked out at 2.35%.

As to `CC(C)/C=N\N=C(\N)N[N+](=O)[O-]`, the OD600 change worked out at 4.14% and the RFP signal change was -5.3%.
